Among the data in paper PMC8421366 are binding values, retold here.

By UniProt entry, the sequences of proteins in these tests, tags left out.
UniProt Q96SW2: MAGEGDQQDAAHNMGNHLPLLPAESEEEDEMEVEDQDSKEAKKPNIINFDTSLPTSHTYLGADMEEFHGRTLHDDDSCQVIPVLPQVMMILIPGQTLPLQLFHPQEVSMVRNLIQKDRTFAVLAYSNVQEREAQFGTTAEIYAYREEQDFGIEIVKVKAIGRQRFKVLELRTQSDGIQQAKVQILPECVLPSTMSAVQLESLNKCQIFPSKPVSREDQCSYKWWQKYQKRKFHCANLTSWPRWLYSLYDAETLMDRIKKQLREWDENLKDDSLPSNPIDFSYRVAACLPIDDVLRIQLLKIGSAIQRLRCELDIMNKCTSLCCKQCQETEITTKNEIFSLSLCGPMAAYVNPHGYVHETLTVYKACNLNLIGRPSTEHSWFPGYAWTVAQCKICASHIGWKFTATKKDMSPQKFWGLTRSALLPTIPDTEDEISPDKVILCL
UniProt Q8C7D2: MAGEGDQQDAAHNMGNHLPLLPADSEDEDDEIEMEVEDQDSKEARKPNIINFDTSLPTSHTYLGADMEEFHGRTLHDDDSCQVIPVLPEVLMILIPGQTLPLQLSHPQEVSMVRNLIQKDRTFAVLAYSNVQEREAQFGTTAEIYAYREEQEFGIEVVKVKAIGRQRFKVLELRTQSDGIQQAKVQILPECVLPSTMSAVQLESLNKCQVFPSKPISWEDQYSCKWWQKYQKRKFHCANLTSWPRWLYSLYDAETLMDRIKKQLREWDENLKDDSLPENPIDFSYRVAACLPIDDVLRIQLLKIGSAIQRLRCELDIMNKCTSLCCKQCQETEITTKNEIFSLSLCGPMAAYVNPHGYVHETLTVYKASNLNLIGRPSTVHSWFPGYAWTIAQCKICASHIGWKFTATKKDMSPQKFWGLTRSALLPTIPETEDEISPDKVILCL
UniProt O15169: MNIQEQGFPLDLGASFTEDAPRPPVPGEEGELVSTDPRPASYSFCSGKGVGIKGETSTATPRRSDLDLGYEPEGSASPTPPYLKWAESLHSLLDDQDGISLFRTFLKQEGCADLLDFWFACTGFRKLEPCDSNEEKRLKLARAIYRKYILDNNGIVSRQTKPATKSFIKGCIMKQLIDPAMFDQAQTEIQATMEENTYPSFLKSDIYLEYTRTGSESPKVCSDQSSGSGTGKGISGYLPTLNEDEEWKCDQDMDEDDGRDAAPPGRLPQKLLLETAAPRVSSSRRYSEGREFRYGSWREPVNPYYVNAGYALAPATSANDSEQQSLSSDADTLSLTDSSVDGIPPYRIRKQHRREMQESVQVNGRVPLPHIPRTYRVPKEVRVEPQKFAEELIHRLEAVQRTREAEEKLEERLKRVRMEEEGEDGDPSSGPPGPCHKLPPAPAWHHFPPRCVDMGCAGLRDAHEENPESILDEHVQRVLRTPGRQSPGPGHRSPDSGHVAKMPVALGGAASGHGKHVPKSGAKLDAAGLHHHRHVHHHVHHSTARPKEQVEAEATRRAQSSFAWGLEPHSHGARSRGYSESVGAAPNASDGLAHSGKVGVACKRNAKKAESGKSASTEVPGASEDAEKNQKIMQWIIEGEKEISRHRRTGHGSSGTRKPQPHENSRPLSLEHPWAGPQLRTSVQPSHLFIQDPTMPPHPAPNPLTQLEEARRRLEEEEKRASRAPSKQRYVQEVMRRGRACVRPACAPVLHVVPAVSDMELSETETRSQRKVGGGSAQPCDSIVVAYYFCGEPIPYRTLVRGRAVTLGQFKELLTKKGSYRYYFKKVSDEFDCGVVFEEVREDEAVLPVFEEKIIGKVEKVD
UniProt Q8BK63: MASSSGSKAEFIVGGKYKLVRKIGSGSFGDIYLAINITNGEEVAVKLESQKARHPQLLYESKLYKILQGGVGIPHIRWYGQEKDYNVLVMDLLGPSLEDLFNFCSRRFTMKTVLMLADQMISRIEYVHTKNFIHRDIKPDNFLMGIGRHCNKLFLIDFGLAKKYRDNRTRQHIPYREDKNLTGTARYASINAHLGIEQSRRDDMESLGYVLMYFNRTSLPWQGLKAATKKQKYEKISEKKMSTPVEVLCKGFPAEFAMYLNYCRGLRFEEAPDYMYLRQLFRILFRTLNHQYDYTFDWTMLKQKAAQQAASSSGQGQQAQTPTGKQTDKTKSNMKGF

No constants are given. Whether binding was seen depends on the method and setting. Binding seen in cells or lysates may run through a third protein. Some results given as binding are weak or reduced against the parent protein; the word gives no strength.

Test [1] deals with Cereblon (CRBN), endogenous in HEK cells (human (endogenous in HEK293T)) (UniProt Q96SW2). The experiment in a line: co-IP; endogenous proteins from HEK cell extracts, cells treated with PBS or Wnt3a for 4 h with 10 μM MG132; CRBN antibodies or PTEN antibodies overnight at 4 °C, Protein G agarose; immunoblotting. For orientation: In western blotting, separated proteins are transferred to a membrane and probed.

Test [2] deals with CRBN, endogenous in mouse fibroblasts (NIH3T3 cells) (mouse (endogenous in NIH3T3)) (UniProt Q8C7D2). The experiment in a line: co-IP; endogenous proteins from NIH3T3 lysates, cells treated with Wnt3a; CRBN antibodies conjugated to agarose beads, overnight at 4 °C; immunoblotting.
The target is the same in test [3]. Description: condition: only cells treated with lenalidomide, without Wnt3a; co-IP; endogenous proteins from NIH3T3 lysates, cells treated with lenalidomide; CRBN antibodies conjugated to agarose beads, overnight at 4 °C; immunoblotting.

Regarding “Axin1, endogenous in HEK cells (from UniProt O15169 1-862)”, the binding entry in test [1] is recorded as “binds”.

As to “CK1α, endogenous in mouse fibroblasts (NIH3T3 cells) (from UniProt Q8BK63 1-337)”, the binding entry in test [2] was “binds”; in test [3], “no binding”.
